Results: publication PMC3742192
These are yes or no findings as the source states them, for the method shown. Binding seen in cells or lysates may run through a third protein. Some entries that bind do so weakly or less than the wild type.

Amino acid sequences for entries named in this document (tags omitted).
UniProt P46940: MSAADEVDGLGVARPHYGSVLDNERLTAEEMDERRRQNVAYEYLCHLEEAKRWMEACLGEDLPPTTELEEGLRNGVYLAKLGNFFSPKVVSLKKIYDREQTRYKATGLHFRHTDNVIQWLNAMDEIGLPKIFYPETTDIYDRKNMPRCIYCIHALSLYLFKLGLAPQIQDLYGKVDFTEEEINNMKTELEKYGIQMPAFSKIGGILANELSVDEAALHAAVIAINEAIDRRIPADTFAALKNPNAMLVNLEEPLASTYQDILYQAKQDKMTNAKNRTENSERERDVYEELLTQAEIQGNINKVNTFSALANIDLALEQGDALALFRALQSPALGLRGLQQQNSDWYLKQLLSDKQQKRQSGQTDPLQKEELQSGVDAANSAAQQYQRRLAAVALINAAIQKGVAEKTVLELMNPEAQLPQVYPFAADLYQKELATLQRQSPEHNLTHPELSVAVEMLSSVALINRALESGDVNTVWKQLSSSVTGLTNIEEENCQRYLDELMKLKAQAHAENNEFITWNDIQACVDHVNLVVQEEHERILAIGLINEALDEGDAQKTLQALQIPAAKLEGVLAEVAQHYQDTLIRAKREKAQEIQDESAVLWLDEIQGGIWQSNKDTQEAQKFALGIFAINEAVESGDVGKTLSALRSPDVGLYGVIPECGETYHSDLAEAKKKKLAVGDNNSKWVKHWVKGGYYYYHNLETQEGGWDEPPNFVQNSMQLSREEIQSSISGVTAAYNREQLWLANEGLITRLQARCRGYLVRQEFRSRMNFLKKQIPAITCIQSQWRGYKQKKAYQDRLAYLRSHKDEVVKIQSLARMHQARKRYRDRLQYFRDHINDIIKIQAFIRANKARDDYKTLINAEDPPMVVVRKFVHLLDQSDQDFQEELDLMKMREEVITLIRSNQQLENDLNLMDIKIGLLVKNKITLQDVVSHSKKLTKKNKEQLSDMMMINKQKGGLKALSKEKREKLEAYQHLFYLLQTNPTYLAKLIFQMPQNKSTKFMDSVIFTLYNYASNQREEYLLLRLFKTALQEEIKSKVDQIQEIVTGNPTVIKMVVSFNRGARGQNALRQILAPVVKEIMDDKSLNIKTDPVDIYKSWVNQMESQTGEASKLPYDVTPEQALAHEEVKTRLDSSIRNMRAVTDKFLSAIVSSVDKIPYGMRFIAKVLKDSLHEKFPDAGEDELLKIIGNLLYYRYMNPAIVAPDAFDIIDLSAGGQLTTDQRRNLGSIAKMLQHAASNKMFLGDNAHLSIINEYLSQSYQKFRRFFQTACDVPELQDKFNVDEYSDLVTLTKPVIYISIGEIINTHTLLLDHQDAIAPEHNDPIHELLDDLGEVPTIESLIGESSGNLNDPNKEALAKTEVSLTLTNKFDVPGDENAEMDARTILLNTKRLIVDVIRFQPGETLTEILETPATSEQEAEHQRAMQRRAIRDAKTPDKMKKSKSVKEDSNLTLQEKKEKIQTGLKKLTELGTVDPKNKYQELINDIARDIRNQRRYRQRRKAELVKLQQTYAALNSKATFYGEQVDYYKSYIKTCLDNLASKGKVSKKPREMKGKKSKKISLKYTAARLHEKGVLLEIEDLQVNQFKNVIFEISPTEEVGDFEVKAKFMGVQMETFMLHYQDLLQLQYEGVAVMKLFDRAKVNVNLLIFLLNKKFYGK

T1: p120-catenin (human (endogenous in HUVEC)) (UniProt O60716)
T1 sequence: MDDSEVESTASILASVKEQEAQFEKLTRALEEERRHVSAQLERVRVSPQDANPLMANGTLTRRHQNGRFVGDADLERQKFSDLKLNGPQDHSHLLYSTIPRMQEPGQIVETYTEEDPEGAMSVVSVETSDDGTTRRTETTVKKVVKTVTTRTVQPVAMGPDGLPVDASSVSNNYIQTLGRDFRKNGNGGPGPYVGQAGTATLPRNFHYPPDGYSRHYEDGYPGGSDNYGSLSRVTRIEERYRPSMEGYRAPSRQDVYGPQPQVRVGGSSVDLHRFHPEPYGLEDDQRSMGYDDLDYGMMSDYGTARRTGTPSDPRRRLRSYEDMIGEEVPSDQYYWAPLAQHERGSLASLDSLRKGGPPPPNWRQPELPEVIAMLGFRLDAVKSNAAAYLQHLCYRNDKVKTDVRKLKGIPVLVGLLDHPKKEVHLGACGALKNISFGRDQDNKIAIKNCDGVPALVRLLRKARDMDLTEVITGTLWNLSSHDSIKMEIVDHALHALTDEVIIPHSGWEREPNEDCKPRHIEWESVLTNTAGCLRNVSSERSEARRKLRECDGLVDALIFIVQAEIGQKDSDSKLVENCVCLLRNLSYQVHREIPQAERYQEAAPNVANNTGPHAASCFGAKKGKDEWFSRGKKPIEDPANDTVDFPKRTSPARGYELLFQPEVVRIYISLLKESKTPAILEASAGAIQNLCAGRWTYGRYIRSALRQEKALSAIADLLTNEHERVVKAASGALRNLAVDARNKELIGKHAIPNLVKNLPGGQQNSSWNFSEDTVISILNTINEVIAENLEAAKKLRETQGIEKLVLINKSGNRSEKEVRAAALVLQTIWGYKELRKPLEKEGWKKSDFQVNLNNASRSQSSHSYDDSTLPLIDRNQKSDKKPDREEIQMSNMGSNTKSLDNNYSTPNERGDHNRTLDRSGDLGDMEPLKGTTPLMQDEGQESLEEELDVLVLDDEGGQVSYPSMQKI

T2: β-catenin (human (endogenous in HUVEC)), P35222
T2 chain: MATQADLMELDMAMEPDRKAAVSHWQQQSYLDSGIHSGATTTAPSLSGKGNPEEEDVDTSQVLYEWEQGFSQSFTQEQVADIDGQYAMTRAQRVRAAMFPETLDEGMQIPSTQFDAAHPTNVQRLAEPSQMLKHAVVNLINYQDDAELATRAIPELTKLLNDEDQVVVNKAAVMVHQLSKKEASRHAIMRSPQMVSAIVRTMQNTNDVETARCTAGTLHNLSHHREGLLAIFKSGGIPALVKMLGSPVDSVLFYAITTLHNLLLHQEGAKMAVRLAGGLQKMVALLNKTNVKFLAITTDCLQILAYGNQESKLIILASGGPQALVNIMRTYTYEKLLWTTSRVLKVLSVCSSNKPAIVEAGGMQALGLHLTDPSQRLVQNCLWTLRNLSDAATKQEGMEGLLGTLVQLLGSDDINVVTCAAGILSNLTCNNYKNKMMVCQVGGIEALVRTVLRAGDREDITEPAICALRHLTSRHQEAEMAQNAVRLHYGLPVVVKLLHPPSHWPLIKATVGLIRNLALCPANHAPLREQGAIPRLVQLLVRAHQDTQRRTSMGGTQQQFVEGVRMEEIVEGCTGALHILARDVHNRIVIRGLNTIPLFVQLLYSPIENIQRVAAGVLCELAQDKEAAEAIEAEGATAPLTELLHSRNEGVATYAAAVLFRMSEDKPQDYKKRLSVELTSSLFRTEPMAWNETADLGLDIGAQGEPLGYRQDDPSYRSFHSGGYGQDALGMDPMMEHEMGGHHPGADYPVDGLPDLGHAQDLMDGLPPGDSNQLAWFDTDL


Experiments:
[1] = target: T1, p120-catenin (human (endogenous in HUVEC)); assay: co-IP; lysates of HUVECs transfected with IQGAP1 siRNA or scrambled siRNA for 48 h, immunoprecipitated with antibodies to p120 or β-catenin; blotted for VE-cadherin, N-cadherin, β- and α-catenin
[2] = target: IQGAP1 (human (endogenous in HUVEC)) (UniProt P46940); assay: co-IP; control HUVEC lysate (30 mM HEPES pH 7.4, 50 mM NaCl, 1% Triton X-100, 10% glycerol, 1 mM EGTA) immunoprecipitated overnight at 4 °C with an antibody to IQGAP1 (IgG as control), protein A- and G-Sepharose; blotted for adherens junction proteins
[3] = target: T2, β-catenin (human (endogenous in …)); assay: co-IP; lysates of HUVECs transfected with IQGAP1 siRNA or scrambled siRNA for 48 h, immunoprecipitated with antibodies to p120 or β-catenin; blotted for VE-cadherin, N-cadherin, β- and α-catenin; details: remark: other sources report otherwise

Molecule | binding [1] | binding [2] | binding [3]
β-catenin (from UniProt P35222 1-781) | binds | binds | 
vascular endothelial (VE)-cadherin (protein, UniProt P33151 48-784) DWIWNQMHIDEEKNTSLPHHVGKIKSSVSRKNAKYLLKGEYVGKVFRVDAETGDVFAIERLDRENISEYHLTAVIVDKDTGENLETPSSFTIKVHDVNDNWPVFTHRLFNASVPESSAVGTSVISVTAVDADDPTVGDHASVMYQILKGKEYFAIDNSGRIITITKSLDREKQARYEIVVEARDAQGLRGDSGTATVLVTLQDINDNFPFFTQTKYTFVVPEDTRVGTSVGSLFVEDPDEPQNRMTKYSILRGDYQDAFTIETNPAHNEGIIKPMKPLDYEYIQQYSFIVEATDPTIDLRYMSPPAGNRAQVIINITDVDEPPIFQQPFYHFQLKENQKKPLIGTVLAMDPDAARHSIGYSIRRTSDKGQFFRVTKKGDIYNEKELDREVYPWYNLTVEAKELDSTGTPTGKESIVQVHIEVLDENDNAPEFAKPYQPKVCENAVHGQLVLQISAIDKDITPRNVKFKFILNTENNFTLTDNHDNTANITVKYGQFDREHTKVHFLPVVISDNGMPSRTGTSTLTVAVCKCNEQGEFTFCEDMAAQVGVSIQAVVAILLCILTITVITLLIFLRRRLRKQARAHGKSVPEIHEQLVTYDEEGGGEMDTTSYDVSVLNSVRRGGAKPPRPALDARPSLYAQVQKPPRHAPGAHGGPGEMAAMIEVKKDEADHDGDGPPYDTLHIYGYEGSESIAESLSSLGTDSSDSDVDYDFLNDWGPRFKMLAELYGSDPREELLY | binds | binds | 
γ-catenin (protein, UniProt P14923 1-745) MEVMNLMEQPIKVTEWQQTYTYDSGIHSGANTCVPSVSSKGIMEEDEACGRQYTLKKTTTYTQGVPPSQGDLEYQMSTTARAKRVREAMCPGVSGEDSSLLLATQVEGQATNLQRLAEPSQLLKSAIVHLINYQDDAELATRALPELTKLLNDEDPVVVTKAAMIVNQLSKKEASRRALMGSPQLVAAVVRTMQNTSDLDTARCTTSILHNLSHHREGLLAIFKSGGIPALVRMLSSPVESVLFYAITTLHNLLLYQEGAKMAVRLADGLQKMVPLLNKNNPKFLAITTDCLQLLAYGNQESKLIILANGGPQALVQIMRNYSYEKLLWTTSRVLKVLSVCPSNKPAIVEAGGMQALGKHLTSNSPRLVQNCLWTLRNLSDVATKQEGLESVLKILVNQLSVDDVNVLTCATGTLSNLTCNNSKNKTLVTQNSGVEALIHAILRAGDKDDITEPAVCALRHLTSRHPEAEMAQNSVRLNYGIPAIVKLLNQPNQWPLVKATIGLIRNLALCPANHAPLQEAAVIPRLVQLLVKAHQDAQRHVAAGTQQPYTDGVRMEEIVEGCTGALHILARDPMNRMEIFRLNTIPLFVQLLYSSVENIQRVAAGVLCELAQDKEAADAIDAEGASAPLMELLHSRNEGTATYAAAVLFRISEDKNPDYRKRVSVELTNSLFKHDPAAWEAAQSMIPINEPYGDDMDATYRPMYSSDVPLDPLEMHMDMDGDYPIDTYSDGLRPPYPTADHMLA |  | binds | 
p120-catenin (protein, UniProt O60716 1-968) MDDSEVESTASILASVKEQEAQFEKLTRALEEERRHVSAQLERVRVSPQDANPLMANGTLTRRHQNGRFVGDADLERQKFSDLKLNGPQDHSHLLYSTIPRMQEPGQIVETYTEEDPEGAMSVVSVETSDDGTTRRTETTVKKVVKTVTTRTVQPVAMGPDGLPVDASSVSNNYIQTLGRDFRKNGNGGPGPYVGQAGTATLPRNFHYPPDGYSRHYEDGYPGGSDNYGSLSRVTRIEERYRPSMEGYRAPSRQDVYGPQPQVRVGGSSVDLHRFHPEPYGLEDDQRSMGYDDLDYGMMSDYGTARRTGTPSDPRRRLRSYEDMIGEEVPSDQYYWAPLAQHERGSLASLDSLRKGGPPPPNWRQPELPEVIAMLGFRLDAVKSNAAAYLQHLCYRNDKVKTDVRKLKGIPVLVGLLDHPKKEVHLGACGALKNISFGRDQDNKIAIKNCDGVPALVRLLRKARDMDLTEVITGTLWNLSSHDSIKMEIVDHALHALTDEVIIPHSGWEREPNEDCKPRHIEWESVLTNTAGCLRNVSSERSEARRKLRECDGLVDALIFIVQAEIGQKDSDSKLVENCVCLLRNLSYQVHREIPQAERYQEAAPNVANNTGPHAASCFGAKKGKDEWFSRGKKPIEDPANDTVDFPKRTSPARGYELLFQPEVVRIYISLLKESKTPAILEASAGAIQNLCAGRWTYGRYIRSALRQEKALSAIADLLTNEHERVVKAASGALRNLAVDARNKELIGKHAIPNLVKNLPGGQQNSSWNFSEDTVISILNTINEVIAENLEAAKKLRETQGIEKLVLINKSGNRSEKEVRAAALVLQTIWGYKELRKPLEKEGWKKSDFQVNLNNASRSQSSHSYDDSTLPLIDRNQKSDKKPDREEIQMSNMGSNTKSLDNNYSTPNERGDHNRTLDRSGDLGDMEPLKGTTPLMQDEGQESLEEELDVLVLDDEGGQVSYPSMQKI |  | binds | 
vascular endothelial (VE)-cadherin, P33151 48-784 (protein) DWIWNQMHIDEEKNTSLPHHVGKIKSSVSRKNAKYLLKGEYVGKVFRVDAETGDVFAIERLDRENISEYHLTAVIVDKDTGENLETPSSFTIKVHDVNDNWPVFTHRLFNASVPESSAVGTSVISVTAVDADDPTVGDHASVMYQILKGKEYFAIDNSGRIITITKSLDREKQARYEIVVEARDAQGLRGDSGTATVLVTLQDINDNFPFFTQTKYTFVVPEDTRVGTSVGSLFVEDPDEPQNRMTKYSILRGDYQDAFTIETNPAHNEGIIKPMKPLDYEYIQQYSFIVEATDPTIDLRYMSPPAGNRAQVIINITDVDEPPIFQQPFYHFQLKENQKKPLIGTVLAMDPDAARHSIGYSIRRTSDKGQFFRVTKKGDIYNEKELDREVYPWYNLTVEAKELDSTGTPTGKESIVQVHIEVLDENDNAPEFAKPYQPKVCENAVHGQLVLQISAIDKDITPRNVKFKFILNTENNFTLTDNHDNTANITVKYGQFDREHTKVHFLPVVISDNGMPSRTGTSTLTVAVCKCNEQGEFTFCEDMAAQVGVSIQAVVAILLCILTITVITLLIFLRRRLRKQARAHGKSVPEIHEQLVTYDEEGGGEMDTTSYDVSVLNSVRRGGAKPPRPALDARPSLYAQVQKPPRHAPGAHGGPGEMAAMIEVKKDEADHDGDGPPYDTLHIYGYEGSESIAESLSSLGTDSSDSDVDYDFLNDWGPRFKMLAELYGSDPREELLY |  |  | binds
